According to ChEMBL document CHEMBL1155626, “Metabolites of Colletotrichum gloeosporioides, an endophytic fungus in Artemisia mongolica” (2000):
Converted amounts (≈) assume the structure as drawn.

Tested on: Staphylococcus aureus
Assay: Antimicrobial activity against Staphylococcus aureus after 48 hrs by paper disk assay
Type: functional

## CC1(C)S[C@@H]2[C@H](NC(=O)[C@H](N)c3ccccc3)C(=O)N2[C@H]1C(=O)O [AMPICILLIN]
  MIC: 0.5 µg/mL (≈ 1.43 µM)
